Experimental data: patent publication US20230174672A1
Results are given in words; binding and its absence hold for the method and conditions named. Some binding calls cover weakened binding; strength is not graded here.

By UniProt entry, the sequences of proteins in these tests, tags left out. Where a name states a change or a piece, a line headed by the entry shows the natural chain unless it says otherwise. Residues count along the entry.
UniProt P07225: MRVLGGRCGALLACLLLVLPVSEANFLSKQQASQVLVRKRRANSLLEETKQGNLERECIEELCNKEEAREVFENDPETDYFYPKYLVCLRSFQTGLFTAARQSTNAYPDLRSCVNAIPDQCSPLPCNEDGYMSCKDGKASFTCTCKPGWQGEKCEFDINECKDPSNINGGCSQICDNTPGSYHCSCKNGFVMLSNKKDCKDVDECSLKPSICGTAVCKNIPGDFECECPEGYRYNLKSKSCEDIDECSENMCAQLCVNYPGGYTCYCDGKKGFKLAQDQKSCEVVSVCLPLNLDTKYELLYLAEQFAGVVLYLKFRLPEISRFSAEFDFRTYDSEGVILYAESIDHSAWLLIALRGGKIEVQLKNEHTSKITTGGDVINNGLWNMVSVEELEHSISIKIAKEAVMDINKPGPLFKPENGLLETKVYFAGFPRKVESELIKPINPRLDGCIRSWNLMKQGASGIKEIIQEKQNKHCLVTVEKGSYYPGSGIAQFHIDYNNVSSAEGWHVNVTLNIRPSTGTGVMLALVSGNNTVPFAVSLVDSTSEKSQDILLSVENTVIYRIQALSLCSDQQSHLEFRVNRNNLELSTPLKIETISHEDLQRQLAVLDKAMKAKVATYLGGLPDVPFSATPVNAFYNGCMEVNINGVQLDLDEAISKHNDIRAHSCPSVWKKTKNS
UniProt P10646, residues 29-282: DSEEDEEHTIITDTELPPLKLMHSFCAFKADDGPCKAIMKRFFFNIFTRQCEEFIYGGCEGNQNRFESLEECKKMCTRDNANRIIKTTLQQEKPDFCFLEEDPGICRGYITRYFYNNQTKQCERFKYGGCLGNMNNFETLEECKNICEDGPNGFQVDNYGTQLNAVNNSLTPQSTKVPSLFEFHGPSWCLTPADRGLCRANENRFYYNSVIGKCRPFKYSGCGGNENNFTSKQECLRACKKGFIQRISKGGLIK

Target: human Protein S (human) (UniProt P07225)
Assay: Octet (BLI): human Protein S held by the control antibody on an anti-hIgG probe, then 10 ug/ml human TFPI, then buffer wash

binding: binds
Substance: human TFPI (from UniProt P10646 29-282)
